Laboratory results taken from patent publication US9777301B2, “Method for producing optically active amine compounds by deracemization” (INDUSTRY-ACADEMIC COOPERATION FOUNDATION, YONSEI UNIVERSITY, priority 2012, dated 2017).
At least one structure is not confirmed: it was looked up by name or label, or the drawing left a doubt.

Key:
[1] = system: (S)-selective ω-transaminase derived from O. anthropi; assay: Substrate specificity of (S)-selective ω-transaminase toward keto acids; type: biochemical, Ochrobactrum anthropi; details: for Acetophenone (mM) O. anthropi: keto acid 20 mM, (S)-α-methylbenzylamine 20 mM, 50 mM potassium phosphate pH 7, 37° C., 10 min
Description: (§1) The substrate specificity of the (S)-selective ω-transaminase was confirmed in each keto acid (20 mM), (S)-α-methylbenzylamine (20 mM) and potassium phosphate (50 mM, pH 7). After the reactions were carried out at 37° C. for 10 min, the amounts of acetophenone produced were measured.

[2] = system: (S)-selective ω-transaminase derived from P. denitrificans; assay: as above; type: biochemical, Paracoccus denitrificans; details: keto acid 20 mM, (S)-α-methylbenzylamine 20 mM, 50 mM potassium phosphate pH 7, 37° C., 10 min
Description: as §1

[3] = system: D-amino acid transaminase; assay: Substrate specificity of purified D-amino acid transaminase toward keto acids (amino acceptors); type: biochemical, Bacillus sphaericus; details: amino acceptor 20 mM, D-alanine 20 mM as amino donor, 0.1 U/ml enzyme, 50 mM potassium phosphate pH 7, 37° C., 10 min
Description: Each of amino acceptors shown in Tables 7 and 8 and D-alanine or D-homoalanine as substrates were allowed to react with the D-amino acid transaminase purified in Example 7. Specifically, each amino acceptor (20 mM), D-alanine or D-homoalanine (20 mM), and potassium phosphate (50 mM, pH 7) were allowed to react with 0.1 U/ml of the D-amino acid transaminase at 37° C. for 10 min, and the amount of a keto acid (pyruvate or 2-oxobutyrate) generated was measured.

| Compound | Activity of (S)-selective ω-transaminase toward keto acid (in words) ([1]; Table 9, speaks of the (S)-selective ω-transaminase without naming O. anthropi or P. denitrificans) | Acetophenone (mM) O. anthropi [1] [mM] | Acetophenone (mM) P. denitrificans [2] [mM] | Pyruvate (mM) generated [3] [mM] |
| --- | --- | --- | --- | --- |
| CC(=O)C(=O)O [Pyruvate] | have activity | 1.284 | – | – |
| O=C(O)C(=O)CBr [Bromopyruvate] | – | 0.010 | -0.001 | 0.000 |
| O=C(O)C(=O)Cc1ccccc1 [Phenylpyruvate] | – | – | – | 0.075 |
